The values that follow come from PMC7862700.

By UniProt entry, the sequences of proteins in these tests, tags left out. Where a name states a change or a piece, a line headed by the entry shows the natural chain unless it says otherwise.
UniProt P50549: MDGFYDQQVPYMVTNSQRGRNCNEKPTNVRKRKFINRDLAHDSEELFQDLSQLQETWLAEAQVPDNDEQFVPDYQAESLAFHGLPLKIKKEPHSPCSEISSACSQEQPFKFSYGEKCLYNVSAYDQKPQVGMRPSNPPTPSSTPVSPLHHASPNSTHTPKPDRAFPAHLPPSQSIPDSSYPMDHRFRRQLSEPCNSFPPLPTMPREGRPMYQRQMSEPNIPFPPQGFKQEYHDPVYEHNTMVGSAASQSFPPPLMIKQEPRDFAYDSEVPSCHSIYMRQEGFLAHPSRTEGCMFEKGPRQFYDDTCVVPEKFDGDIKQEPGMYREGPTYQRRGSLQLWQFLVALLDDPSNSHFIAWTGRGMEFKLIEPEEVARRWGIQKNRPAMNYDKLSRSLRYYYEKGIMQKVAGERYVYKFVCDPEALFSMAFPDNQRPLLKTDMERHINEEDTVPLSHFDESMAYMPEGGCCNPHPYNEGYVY
UniProt P32519: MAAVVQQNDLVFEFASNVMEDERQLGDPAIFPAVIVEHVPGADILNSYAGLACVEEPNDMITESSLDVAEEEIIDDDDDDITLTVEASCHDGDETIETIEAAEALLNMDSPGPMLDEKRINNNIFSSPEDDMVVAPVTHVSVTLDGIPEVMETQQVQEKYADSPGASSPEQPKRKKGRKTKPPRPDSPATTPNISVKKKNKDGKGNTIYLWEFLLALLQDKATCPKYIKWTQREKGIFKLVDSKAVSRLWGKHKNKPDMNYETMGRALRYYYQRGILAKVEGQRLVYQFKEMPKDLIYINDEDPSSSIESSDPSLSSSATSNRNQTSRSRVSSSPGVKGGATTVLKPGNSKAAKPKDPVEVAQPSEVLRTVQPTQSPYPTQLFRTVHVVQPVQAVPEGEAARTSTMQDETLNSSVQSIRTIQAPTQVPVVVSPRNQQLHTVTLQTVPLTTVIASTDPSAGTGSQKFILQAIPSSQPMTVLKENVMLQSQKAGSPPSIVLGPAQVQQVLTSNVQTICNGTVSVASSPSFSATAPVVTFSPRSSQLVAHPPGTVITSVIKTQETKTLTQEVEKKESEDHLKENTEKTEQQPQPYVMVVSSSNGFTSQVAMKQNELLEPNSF

What all share (experiment): DAPPL (digital affinity profiling via proximity ligation, sequencing)
Conditions in all cases: 10 mM Tris-HCl pH 7.5, 50 mM NaCl, 1 mM DTT, 4% glycerol, room temperature, 30 min; GST-TFs on glutathione beads, 16-mer random dsDNA library, 0.1% …; high values mean tight binding; double strand, one strand shown; scale: fold enrichment (6-mer frequency, TF over GST control)

The target in one assay is T1, ERG (UniProt P11308).
T1 sequence: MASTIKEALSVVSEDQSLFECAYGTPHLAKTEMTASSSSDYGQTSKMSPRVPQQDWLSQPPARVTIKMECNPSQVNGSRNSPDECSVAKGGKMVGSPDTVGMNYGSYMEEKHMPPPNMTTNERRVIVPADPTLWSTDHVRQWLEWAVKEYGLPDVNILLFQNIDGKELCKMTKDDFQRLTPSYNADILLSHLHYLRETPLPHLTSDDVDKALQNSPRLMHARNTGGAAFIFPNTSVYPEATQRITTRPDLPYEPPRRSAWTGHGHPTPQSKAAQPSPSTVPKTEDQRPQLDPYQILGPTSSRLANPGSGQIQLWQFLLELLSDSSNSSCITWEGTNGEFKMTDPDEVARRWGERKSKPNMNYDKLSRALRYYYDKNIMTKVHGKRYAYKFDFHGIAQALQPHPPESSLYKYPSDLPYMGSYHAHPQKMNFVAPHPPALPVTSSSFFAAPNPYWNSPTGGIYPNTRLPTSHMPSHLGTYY

A further assay has as its target T2, ELK4 (UniProt P28324-2).
T2 sequence: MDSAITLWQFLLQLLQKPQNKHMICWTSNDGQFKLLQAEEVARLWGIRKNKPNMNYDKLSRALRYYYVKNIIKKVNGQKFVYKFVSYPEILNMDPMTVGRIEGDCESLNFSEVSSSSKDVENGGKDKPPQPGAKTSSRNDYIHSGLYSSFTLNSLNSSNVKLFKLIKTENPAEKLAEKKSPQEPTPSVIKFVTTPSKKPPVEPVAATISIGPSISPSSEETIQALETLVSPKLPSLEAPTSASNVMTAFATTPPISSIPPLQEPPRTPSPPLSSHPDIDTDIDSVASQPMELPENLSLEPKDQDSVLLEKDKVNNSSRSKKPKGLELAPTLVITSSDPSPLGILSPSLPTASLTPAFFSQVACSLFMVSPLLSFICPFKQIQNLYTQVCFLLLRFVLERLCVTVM

Another assay deals with T3, ETV4 (UniProt P43268).
T3 sequence: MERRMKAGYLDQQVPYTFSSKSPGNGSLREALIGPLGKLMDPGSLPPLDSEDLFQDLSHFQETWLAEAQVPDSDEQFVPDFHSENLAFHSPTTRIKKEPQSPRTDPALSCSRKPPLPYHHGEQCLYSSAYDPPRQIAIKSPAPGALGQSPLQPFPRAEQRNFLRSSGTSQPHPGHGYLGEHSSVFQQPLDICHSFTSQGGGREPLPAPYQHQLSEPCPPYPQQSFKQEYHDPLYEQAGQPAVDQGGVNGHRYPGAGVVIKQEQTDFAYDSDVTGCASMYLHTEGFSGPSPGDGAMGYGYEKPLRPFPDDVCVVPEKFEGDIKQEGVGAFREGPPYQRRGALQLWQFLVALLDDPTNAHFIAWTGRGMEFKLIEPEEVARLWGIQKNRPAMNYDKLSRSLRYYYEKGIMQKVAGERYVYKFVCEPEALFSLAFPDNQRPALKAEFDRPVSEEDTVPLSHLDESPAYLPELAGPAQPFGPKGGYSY

A further assay has as its target ETV1 (UniProt P50549).
The target of a further assay is ELF1 (UniProt P32519).
Another assay addresses T4, ERF (UniProt P50548).
T4 sequence: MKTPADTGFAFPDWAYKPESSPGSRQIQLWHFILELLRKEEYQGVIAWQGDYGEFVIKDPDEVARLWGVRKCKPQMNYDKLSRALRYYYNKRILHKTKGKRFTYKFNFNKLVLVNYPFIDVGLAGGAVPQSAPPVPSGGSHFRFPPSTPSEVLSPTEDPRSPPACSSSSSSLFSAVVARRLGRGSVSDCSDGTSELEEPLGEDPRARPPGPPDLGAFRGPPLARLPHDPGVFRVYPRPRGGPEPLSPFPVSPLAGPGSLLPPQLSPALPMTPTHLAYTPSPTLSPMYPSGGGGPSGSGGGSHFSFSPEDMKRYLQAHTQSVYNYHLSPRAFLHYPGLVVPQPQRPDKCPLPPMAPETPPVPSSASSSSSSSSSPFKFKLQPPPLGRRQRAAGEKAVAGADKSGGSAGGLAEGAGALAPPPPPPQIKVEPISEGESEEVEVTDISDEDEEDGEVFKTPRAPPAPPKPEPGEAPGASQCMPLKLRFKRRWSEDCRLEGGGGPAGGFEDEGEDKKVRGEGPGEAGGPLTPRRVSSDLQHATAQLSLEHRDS

The entries are a selection whose mix differs from that of the whole data set. For some assays here: At the low end of the ranking, values are background and their order means little. The list shows a part of the results. For some assays here: The source does not settle which construct or isoform was used.

For the sequence GCACTT, the binding signal with ERG was determined as 1.93; with ELK4, 1.62; in the assay with ETV4, 1.95; with ETV1, 1.86.
Consider CGACTT, for which the binding signal in the assay with ERG amounted to 1.84; in the assay with ELF1, 1.69; in the assay with ELK4 it was 1.97; with ETV4 it was 1.77.
As to CTTTTC, the binding signal with ERG amounted to 1.43; with ELK4 it was 1.49; in the assay with ETV4 it was 1.39; in the assay with ERF, 1.33.
Consider AATCCC, for which the binding signal in the assay with ELK4 worked out at 1.28; in the assay with ETV4 it was 1.37; in the assay with ETV1 it was 1.42.
With AATTGT, the binding signal was determined as 1.28 in the assay with ERG, 1.14 with ELK4 and 1.31 with ETV4.
As for CTCATG, the binding signal in the assay with ERG worked out at 1.21; in the assay with ELK4 it was 1.28; with ETV4, 1.24; in the assay with ERF, 1.18.
As to CTTAGA, the figures for the binding signal with ERG, in the assay with ELK4 and with ETV4 were 1.09, 1.24 and 1.1, respectively.
For the sequence TCCCAC, the binding signal amounted to 1.37 with ERG, 1.34 with ELK4, 1.39 in the assay with ETV4 and 1.34 with ETV1.
With TTATCA, the binding signal in the assay with ERG was determined as 1.06; with ELK4, 1.2; with ETV4 it was 1.1.
Take CTTACG: the binding signal was 0.867 in the assay with ELK4, 1.05 in the assay with ETV4 and 0.977 with ETV1.
For the sequence TCTCAA, the figures for the binding signal with ERG, with ELK4 and with ETV4 were 1.28, 1.25 and 1.32, respectively.
Consider TAAAAT, for which the binding signal with ERG was found to be 1.19; with ELF1, 1.24; with ELK4 it was 1.2; in the assay with ETV4 it was 1.2.
Turning to TGTGCT, the binding signal with ERG is 1.23; with ELK4 it was 1.17; with ETV4, 1.31; with ERF, 1.19.
For the sequence AAGTCC, the binding signal in the assay with ELK4 was determined as 1.25; with ETV4, 1.25; with ETV1, 1.26.
As for ATCATC, the binding signal with ERG came out at 1.17; with ELF1, 1.25; with ELK4 it was 1.31; in the assay with ETV4 it was 1.18.
In the case of AATAAT, the binding signal with ELK4 came out at 1.22; with ETV4, 1.29; with ETV1 it was 1.24.
On to GCTATA, for which the binding signal with ERG was determined as 1.16; in the assay with ELF1 it was 1.19; in the assay with ELK4, 1.18; with ETV4 it was 1.11; in the assay with ERF, 1.16.
On to TCTACG, for which the binding signal with ELK4 came out at 1.36; in the assay with ETV4, 1.32; with ETV1 it was 1.44.
As for CGTCTC, the binding signal with ELK4 is 1.49; with ETV4, 1.37; in the assay with ETV1 it was 1.43; with ERF it was 1.49.
Turning to GCTTCG, the binding signal with ELK4 was found to be 1.38; with ETV4, 1.32; with ETV1 it was 1.29.
In the same order, the values of GACCTT are 1.61, 1.69 and 1.48.
